Test results published in PubChem BioAssay AID504648 (National Center for Advancing Translational Sciences (NCATS), 2011).
The campaign covered roughly 390,000 compounds. About 610 (0.16%) were called active. The inconclusive results got no clear call from the source; some entries with a clear call stand among them for comparison. Calls follow the shape of the dose curve; as a rule, active = well fitted inhibition curve with a large enough effect; inconclusive = small, poorly fitted or top-dose-only effect, or effect the other way, or another doubt; inactive = no such curve, though single readings can be large or run the other way. A potency beside an inconclusive call is a rough fit, not a confirmed value.

experiment: Nrf2 qHTS screen for inhibitors: counterscreen for cytotoxicity; conditions: A549 ARE-Fluc cells, CellTiter-Fluor viability, 18-24 h; activity change, negative = cytotoxicity: at 46 µM (top of the series)
In short: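 Cytotoxicity counterscreen: CellTiter-Fluor fluorescence was measured in A549 ARE_Fluc cells after 18-24 h of compound exposure in a concentration series. The subsequent BugLite luminescent read reports ARE-luciferase activity.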
% is scaled to controls: 0 for no effect and ±100 for the full control effect; potency is read from the fitted curve at half-maximal effect.

Question: With `CC1=Nc2ccccc2/C1=C/c1c(N)n2c(S(=O)(=O)C(C)C)nsc2nc1=O` as the compound, how does the Potency read?
Answer: The Potency was inconclusive: 23.1 µM [falling, single point].

Question: With `Cc1ccc(NC(=O)C2CCN(S(=O)(=O)c3ccc4[nH]c5c(c4c3)CCCCC5)CC2)cc1` as the compound, how does the “activity change, negative = cytotoxicity” value read?
Answer: Its value is inactive: -7.41%.

Question: With `COc1ccccc1N1CCN(c2ncnc3onc(-c4ccc(F)cc4)c23)CC1` as the compound, how does the activity change, negative = cytotoxicity read?
Answer: Its activity change, negative = cytotoxicity is inconclusive: -63% [activator].

Question: With `COc1cc(C(=O)Nc2ccc3c(c2)OCO3)ccc1-n1cnnn1` as the compound, how does the Potency read?
Answer: Its Potency is inconclusive: 2.91 µM [activator, single point].

Question: Which Potency does the source give for `Cc1ccc(CN=c2c([N+](=O)[O-])nn(-c3ccc4c(c3)OCCO4)n2O)cc1` here?
Answer: Its Potency is inconclusive: 29.1 µM [falling, single point].

Question: For `O=C(C1CCCN(Cc2ccccc2)C1)N1CCCCC1` (stereo not drawn), which “activity change, negative = cytotoxicity” value is on record?
Answer: Its value is inactive: 1.94%.

Question: For `CCc1ccc(/C=N/N2CCN(c3ccccn3)CC2)cc1`, which “activity change, negative = cytotoxicity” value is on record?
Answer: Its value is inactive: 0%.

Question: Which Potency does the source give for `COc1ccc(-c2noc(N3CCC(C(=O)Nc4ccc(F)cc4Cl)CC3)n2)cc1` here?
Answer: The Potency was inconclusive: 5.8 µM [falling, partial curve, poor fit].

Question: For `O=C(N/N=C/c1ccc(F)cc1)c1cc(-c2ccc3c(c2)OCO3)n[nH]1`, which Potency is on record?
Answer: The Potency was inconclusive: 29.1 µM [falling, single point].

Question: Which “activity change, negative = cytotoxicity” value does the source give for `C[C@@H]1CC=C[C@@H]2[C@H]1C(=O)N(Cc1ccccc1)[C@H]2c1cccc(Br)c1` here?
Answer: The value was inactive: -5.01%.

Question: For `Cc1ccccc1C(=O)N1CCCC(CCC(=O)N2CCN(c3ccccn3)CC2)C1` (stereo not drawn), which “activity change, negative = cytotoxicity” value is on record?
Answer: The value was inactive: -10.1%.

Question: Which “activity change, negative = cytotoxicity” value does the source give for `COc1ccc2nc(N3C(=O)/C(=C/c4ccccc4)NC3=S)sc2c1` here?
Answer: The value was inactive: -26.5%.

Question: For `Cc1ccccc1Oc1ccc(S(=O)(=O)NCCC(=O)O)cc1`, which Potency is on record?
Answer: Its Potency is inconclusive: 0.58 µM [falling, partial curve, poor fit].

Question: Which Potency does the source give for `CCN(CC)S(=O)(=O)c1cc(NS(=O)(=O)c2cc(Cl)ccc2Cl)ccc1C` here?
Answer: The Potency was inconclusive: 29.1 µM [falling, single point].

Question: For `CCN1CCN(c2ncc(C(=O)Nc3ccccc3C(=O)OC)c3ccccc23)CC1`, which Potency is on record?
Answer: The Potency was active: 18.4 µM.

Question: With `CCn1cc(C(=O)OCC(=O)OC2CC(C)CCC2C(C)C)c(=O)c2ccc(C)nc21` (stereo not drawn) as the compound, how does the Potency read?
Answer: The Potency was inconclusive: 20.6 µM [falling, single point].

Question: Which Potency does the source give for `Cc1cccc(C(C)(C)C)c1OCCCCN1CCCC1` here?
Answer: Its Potency is inconclusive: 29.1 µM [falling, single point].

Question: With `Cc1cccc(NC(=O)Cn2c(SCC(=O)NCc3ccccc3)nc3ccccc32)c1C` as the compound, how does the “activity change, negative = cytotoxicity” value read?
Answer: Its value is inactive: 14.7%.

Question: Which Potency does the source give for `O=C(NNC(=O)c1cc(-c2ccc(Cl)c(Cl)c2)nc2ccccc12)Nc1ccccc1` here?
Answer: Its Potency is inconclusive: 23.1 µM [falling, single point].

Question: For `CCOC(=O)c1cc2n(n1)C(C(F)(F)F)CC(C)N2` (stereo not drawn), which “activity change, negative = cytotoxicity” value is on record?
Answer: The value was inactive: -8.79%.

Question: With `O=[N+]([O-])c1ccc(NC(=S)NCCc2ccccc2)cc1` as the compound, how does the Potency read?
Answer: Its Potency is inconclusive: 23.1 µM [falling, partial curve, poor fit].

Question: For `COc1ccc(-c2cnc(N)nc2-c2ccc(OCc3ccccc3)cc2O)cc1`, which Potency is on record?
Answer: Its Potency is inconclusive: 20.6 µM [falling, partial curve, poor fit].

Question: With `CCOC(=O)C1=C(CN2CCN(c3ccc(C)cc3C)CC2)NC(=O)NC1c1ccc(OC)cc1` (stereo not drawn) as the compound, how does the “activity change, negative = cytotoxicity” value read?
Answer: The value was inactive: -29.1%.

Question: For `O=C(O)c1ccccc1-c1c2cc(I)c(=O)c(I)c-2oc2c(I)c(O)c(I)cc12`, which Potency is on record?
Answer: The Potency was active: 9.2 µM.

Question: Which Potency does the source give for `O=[N+]([O-])c1ccc(N/N=C2\CC3CC=CC23)c([N+](=O)[O-])c1` (stereo not drawn) here?
Answer: The Potency was inconclusive: 23.1 µM [falling, partial curve, poor fit].

Question: Which Potency does the source give for `Cc1ccc2occ(/C=N/O)c(=O)c2c1` here?
Answer: The Potency was inconclusive: 16.4 µM [activator, partial curve, poor fit].

Question: Which Potency does the source give for `CCCN(CC(=O)Nc1ccccc1OC)C(=O)c1ccc2[nH]c3c(c2c1)CC(C)CC3` (stereo not drawn) here?
Answer: The Potency was inconclusive: 20.6 µM [falling, single point].

Question: Which Potency does the source give for `CCCCN1CC(COCc2ccccc2)Oc2cc(Br)ccc2S1(=O)=O` (stereo not drawn) here?
Answer: Its Potency is inconclusive: 25.9 µM [activator, partial curve, poor fit].

Question: For `COc1ccc(OCC(=O)Nc2c(C(=O)N(CCN(C)C)Cc3ccco3)oc3ccccc23)cc1`, which “activity change, negative = cytotoxicity” value is on record?
Answer: Its value is inactive: 0.424%.

Question: Which Potency does the source give for `COc1cc(OC)c2ccc(=O)oc2c1C(CCN1CCN(c2ccccc2)CC1)c1ccc2c(c1)OCO2` (stereo not drawn) here?
Answer: Its Potency is active: 23.1 µM.

Question: For `CCN1CCc2c(sc(NC(=O)c3ccc(S(=O)(=O)N(CC)c4ccccc4)cc3)c2C(N)=O)C1`, which Potency is on record?
Answer: Its Potency is active: 23.1 µM.

Question: Which Potency does the source give for `CCOC(=O)c1nn(-c2ccccc2)c(C(=O)OCC)c1N` here?
Answer: Its Potency is inconclusive: 29.1 µM [activator, partial curve, poor fit].

Question: Which Potency does the source give for `COc1cccc(Nc2nnc(SCC(=O)N(CC(C)C)CC(C)C)s2)c1` here?
Answer: The Potency was inconclusive: 29.1 µM [falling, partial curve, poor fit].

Question: Which “activity change, negative = cytotoxicity” value does the source give for `O=C(CN1C(=O)c2cccnc2Sc2ccccc21)Nc1cc(F)ccc1F` here?
Answer: The value was inactive: 6.92%.

Question: For `O=S(=O)(Nc1cccc(-c2ccc3nncn3n2)c1)c1cc(F)ccc1F`, which “activity change, negative = cytotoxicity” value is on record?
Answer: Its value is inactive: 1.91%.

Question: For `O=C(NNC(=O)c1ccccc1OCc1ccccc1Cl)c1csc(N2CCOCC2)n1`, which Potency is on record?
Answer: Its Potency is inconclusive: 29.1 µM [falling, single point].

Question: With `COc1ccc(CNc2ncc(-c3ccc(F)cc3)n2C)c2ccccc12` as the compound, how does the “activity change, negative = cytotoxicity” value read?
Answer: Its value is inactive: -0.355%.

Question: For `COc1ccc(O)c(-c2cc(-c3ccccc3Cl)[nH]n2)c1`, which “activity change, negative = cytotoxicity” value is on record?
Answer: The value was inactive: -7.92%.

Question: For `C=CCN(C(=O)CSC1=NC(=O)CN1C(C)=O)c1nc(C)c(-c2ccccc2)s1`, which “activity change, negative = cytotoxicity” value is on record?
Answer: The value was inactive: 2.09%.

Question: With `CC(=NNC(=S)N1CC2CCC(CC2)C1)c1cnccn1` as the compound, how does the Potency read?
Answer: The Potency was inconclusive: 10.3 µM [falling, partial curve].

Question: For `CC1(C)CC(=O)c2c(n(S(=O)(=O)c3ccccc3)c3ccc(NS(=O)(=O)c4ccccc4)cc23)C1`, which Potency is on record?
Answer: Its Potency is inconclusive: 13 µM [falling, partial curve].

Question: Which Potency does the source give for `COc1ccccc1Nc1c2c(nc3ccc(NC(=O)c4ccc(N(C)C)cc4)cc13)CCCC2` here?
Answer: The Potency was inconclusive: 18.4 µM [falling, single point].

Question: With `Cc1sc2ncnc(N3CCC(C(=O)N(C)CC(=O)Nc4ccccc4Cl)CC3)c2c1C` as the compound, how does the Potency read?
Answer: Its Potency is inconclusive: 16.4 µM [falling, single point].

Question: With `CNCCCOc1cc(C)cc(C)c1C` as the compound, how does the Potency read?
Answer: The Potency was inconclusive: 16.4 µM [activator, partial curve, poor fit].

Question: For `CN(CCCC(=O)O)c1ccc(N=Nc2ccc([N+](=O)[O-])cc2)cc1`, which Potency is on record?
Answer: The Potency was inconclusive: 29.1 µM [falling, single point].

Question: For `CCOc1ccc(NC(=O)COn2nnc3ccc(S(=O)(=O)N4CCOCC4)cc32)cc1`, which Potency is on record?
Answer: Its Potency is inconclusive: 16.4 µM [falling, partial curve, poor fit].

Question: For `CCc1ccc(-n2c(=O)c3ccccc3n(Cc3ccccc3C#N)c2=O)cc1`, which “activity change, negative = cytotoxicity” value is on record?
Answer: Its value is inactive: -2.47%.

Question: For `O=C(CSc1nc2nc(-c3cccs3)cc(C(F)(F)F)c2c(=O)[nH]1)Nc1c(F)c(F)c(F)c(F)c1F`, which “activity change, negative = cytotoxicity” value is on record?
Answer: Its value is inactive: -13.3%.

Question: With `Cc1cccc(OCCC(=O)NCC(c2ccccc2)N(C)C)c1` (stereo not drawn) as the compound, how does the Potency read?
Answer: Its Potency is inconclusive: 20.6 µM [activator, single point].

Question: Which Potency does the source give for `Cc1ccc(N(CC2=NCCN2)c2cccc(O)c2)cc1` here?
Answer: The Potency was inconclusive: 29.1 µM [falling, partial curve, poor fit].

Question: Which Potency does the source give for `CCCSc1nnc(NC(=O)Nc2ccc(F)cc2)s1` here?
Answer: The Potency was inconclusive: 25.9 µM [falling, single point].

Question: For `Cc1cc(NC(c2ccc(Cl)cc2)c2ccc3cccnc3c2O)no1` (stereo not drawn), which Potency is on record?
Answer: Its Potency is inconclusive: 18.4 µM [falling, partial curve, poor fit].

Question: Which Potency does the source give for `Cc1ccc(-n2c(-c3ccccc3)c[n+]3c2CCC3)cc1` here?
Answer: Its Potency is inconclusive: 7.31 µM [falling, partial curve, poor fit].

Question: For `COc1cccc(-n2c(=O)c3c(C)c(C)sc3n(Cc3ccccc3C#N)c2=O)c1`, which “activity change, negative = cytotoxicity” value is on record?
Answer: Its value is inactive: -6.36%.

Question: With `O=[N+]([O-])c1nn(-c2ccccc2)n(O)c1=NCCc1ccccc1` as the compound, how does the Potency read?
Answer: The Potency was inconclusive: 20.6 µM [falling, partial curve, poor fit].

Question: With `c1ccc(-c2cccc(-c3ccccn3)n2)nc1` as the compound, how does the Potency read?
Answer: Its Potency is inconclusive: 6.51 µM [falling, partial curve, poor fit].

Question: With `Cc1nc(SCCc2nc3ccccc3[nH]2)c2oc3ccccc3c2n1` as the compound, how does the “activity change, negative = cytotoxicity” value read?
Answer: Its value is inactive: -0.133%.

Question: With `CC(C)c1cc(-c2nc(-c3ccc(Cl)cc3)no2)n[nH]1` as the compound, how does the Potency read?
Answer: Its Potency is inconclusive: 20.6 µM [falling, partial curve, poor fit].

Question: Which Potency does the source give for `CC(C)(C)c1cc[n+](C2=C([O-])c3ccccc3C(=O)/C2=N\S(=O)(=O)c2cccs2)cc1` here?
Answer: The Potency was inconclusive: 20.6 µM [falling, single point].

Question: For `Cc1ccc(NC(=O)CSCc2cc(=O)n3cc(C)sc3n2)cc1`, which “activity change, negative = cytotoxicity” value is on record?
Answer: Its value is inactive: -4.33%.

Question: Which Potency does the source give for `COc1cccc(OC)c1OCCN1CCCC1` here?
Answer: The Potency was inconclusive: 13 µM [activator, partial curve, poor fit].

Question: With `Cc1ccc(CNC(=O)c2c(Nc3c(C)cccc3C)sc(C(=O)c3ccccc3)c2N)cc1` as the compound, how does the Potency read?
Answer: The Potency was inconclusive: 29.1 µM [falling, partial curve, poor fit].

Question: With `O=C(N/N=C/c1ccccc1Cl)c1[nH]c2ccc(Br)cc2c1-c1ccccc1` as the compound, how does the Potency read?
Answer: Its Potency is inconclusive: 5.17 µM [falling, partial curve].

Question: For `CC(C)c1ccc(NC(=O)c2ccc(CN3CC(=O)N4CCCCC4C3=O)cc2)cc1` (stereo not drawn), which “activity change, negative = cytotoxicity” value is on record?
Answer: Its value is inactive: 3.47%.

Question: With `O=C1OCCN1C(=O)[C@H]1[C@H](c2ccc(F)cc2)C(c2cccc(Cl)c2)=NN1c1ccc(Br)cc1` as the compound, how does the Potency read?
Answer: Its Potency is inconclusive: 18.4 µM [activator, single point].

Question: For `COC(=O)c1ccccc1NC(=O)CCC(=O)N1CCSc2ccccc21`, which Potency is on record?
Answer: The Potency was inconclusive: 3.26 µM [activator, partial curve, poor fit].

Question: For `COc1ccc(NC(=O)CCc2c(C)nc3cc(-c4cccc(F)c4)nn3c2C)cc1Cl`, which “activity change, negative = cytotoxicity” value is on record?
Answer: Its value is inactive: 9.36%.

Question: With `CCCOc1c(Cl)cc(C(=O)Nc2ccc3c(c2)OCO3)cc1OCC` as the compound, how does the Potency read?
Answer: The Potency was inconclusive: 11.2 µM [falling, partial curve, poor fit].
